{"source": "PubChem BioAssay AID1508600", "about": "(Functional Genomics Laboratory (NCATS/FGL), 2020)", "note": "Screen size: about 53,000 sequences; about 3,700 (7%) were called active.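 Rule for the calls: active = gene knockdowns whose robust z-score for IL-1 alpha signal is at least 2 or at most -2, so actives lie on both sides; inactive = the rest.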 This is one part of the list."}
{"experiment": "Components of the Cytosolic LPS Sensing Pathway: Gene Identification via Genome-wide siRNA Screen;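 note: robust z of the log signal after scaling to non-targeting control siRNA wells of the plate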", "conditions": "RAW264.7 macrophages, IL-1a HTRF, actives lie on both sides, screened at 100 nM (by protocol), cells primed 5 h with Pam3CSK4 first", "how_it_was_run": "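RAW264.7; siRNA 100 nM final, RNAiMAX, 48h 37 degrees C; Pam3CSK4 5 h; LipidA + TransIT-TKO 24 h; IL-1a HTRF; CellTiter-Glo viability; robust z vs negative-control median.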"}
{"sequence": "GGCACUUAAGUUUCAUAAGTT against Qars", "z-score": "inactive: 0.466"}
{"sequence": "GGUUUCGUAUAAAUUCUCUTT against Ank", "z-score": "inactive: 1.53"}
{"sequence": "GGAACAAGCAAGUCAAACATT against Olfr770", "z-score": "active: 2.24"}
{"sequence": "GGAUCUUACUAUCACCAGCTT against Foxf1", "z-score": "inactive: 1.99"}
{"sequence": "GGCGGGUACAUAAGAAUCUTT against Tusc2", "z-score": "inactive: 0.863"}
{"sequence": "GGAGUCUGUGGAUAGUGUATT against Creb1", "z-score": "inactive: 0.232"}
{"sequence": "GCAAAAGGGAUUCCUCGAUTT against Zdhhc14", "z-score": "inactive: -0.708"}
{"sequence": "GGAAGAAUUGAACCACAGGTT against Papolg", "z-score": "inactive: -1.72"}
{"sequence": "CCCAAAAAAAUCGUACUGUTT against Rbx1", "z-score": "inactive: 0.062"}
{"sequence": "GGUAAUCCUGACUUCGUGGTT against Asb17", "z-score": "inactive: 0.915"}
{"sequence": "GGACAUUUCACAAGUCAAATT against Eloc", "z-score": "inactive: 1.81"}
{"sequence": "GGAACUUGAGGUUUUCUGGTT against Spag17", "z-score": "inactive: -1.89"}
{"sequence": "GCCAAUGUAACCUUCAAAATT against Lypla1", "z-score": "inactive: 0.351"}
{"sequence": "GGGACCCAAACAUUGAAGCTT against Fez1", "z-score": "inactive: 0.547"}
{"sequence": "CCGAGUUUGGCUAUAAAGGTT against Tufm", "z-score": "inactive: -0.316"}
{"sequence": "GGAGCGAUGUAGUUGCUUGTT against Olig1", "z-score": "inactive: 1.02"}
{"sequence": "GCAGUGUGUCCUAAAGCUCTT against Osbpl1a", "z-score": "inactive: -1.23"}
{"sequence": "GGAAUUGACCAAGACAUAUTT against Mep1b", "z-score": "inactive: 0.101"}
{"sequence": "GGAGAGUGAAGAUUAAAUCTT against Golt1a", "z-score": "inactive: -0.035"}
{"sequence": "GGGUGCCAAACACCUCAGUTT against Igfbp2", "z-score": "inactive: -0.563"}
{"sequence": "GGAGAAGGAGCAGAUUAAATT against Krt8", "z-score": "active: 2.07"}
{"sequence": "CCUACUCUACAACAUGGAATT against Alox15", "z-score": "inactive: 0.57"}
{"sequence": "GGAAUUUGCCAAUGACUUCTT against Cygb", "z-score": "inactive: 1.06"}
{"sequence": "GCCAAGUGCUACAACAUCCTT against Ifitm5", "z-score": "inactive: -0.64"}
{"sequence": "GGUACUUCCUCAUUUACCUTT against Zdhhc4", "z-score": "inactive: 0.541"}
{"sequence": "GCACAUUUUAGCCUAAUGGTT against Tpm3", "z-score": "inactive: -0.785"}
{"sequence": "GGAAAACCUUUUCAGCUUCTT against Nsmf", "z-score": "inactive: 0.4"}
{"sequence": "CCAAAAGUGGAGAGCGACATT against Cnrip1", "z-score": "inactive: -1.32"}
{"sequence": "GCAAAGAUAACAGUAUGUUTT against Polr2m", "z-score": "inactive: -0.216"}
{"sequence": "GGCUAUUGUGCAGUUGAAGTT against Plec", "z-score": "inactive: 0.119"}
{"sequence": "GGCACUGAGAUCUGUAAUUTT against Wipi1", "z-score": "inactive: 1.13"}
{"sequence": "GGCCGAAGCCCAGAAACAATT against Itih4", "z-score": "inactive: -0.622"}
{"sequence": "CCGAUGCAUCUGCUUUAUUTT against Mfsd9", "z-score": "inactive: 0.149"}
{"sequence": "GGGUUUCUUCCCUGAGCUATT against Nxf7", "z-score": "inactive: -1.97"}
{"sequence": "GGAUUCCCUAUCCCAUACCTT against Araf", "z-score": "inactive: 0.78"}
{"sequence": "GCAGCGUAUGCUAAUAUAATT against Cln3", "z-score": "inactive: 1.16"}
{"sequence": "GUGUCUCUGUAGUUGUUACTT against Olfr494", "z-score": "inactive: -0.739"}
{"sequence": "GGUCAAGUCAUCAGAAAUGTT against Sdr42e1", "z-score": "inactive: 0.472"}
{"sequence": "GGCCAUUUAAUUUCAUGGCTT against Skida1", "z-score": "inactive: 0.398"}
{"sequence": "GGCCGAGAGUAUUUCUACATT against Efna5", "z-score": "inactive: -0.254"}
{"sequence": "GGCUGUUGAACAGGUUAUCTT against Mis12", "z-score": "inactive: 0.645"}
{"sequence": "GGGUUCUGGUGGCUAAGUUTT against Fam189a1", "z-score": "inactive: -0.0493"}
{"sequence": "CCUUGACCCAGAUUGAGAATT against Xkr6", "z-score": "inactive: 0.363"}
{"sequence": "GGAAGAAGGCAGUGCUGAUTT against Ap3d1", "z-score": "inactive: -0.317"}
{"sequence": "CCCAAAAUUAUGGAAGCCATT against Scgb2b20", "z-score": "inactive: -1.65"}
{"sequence": "GGAGAGAUGUCCACAGCCUTT against Smarcal1", "z-score": "inactive: -1.89"}
{"sequence": "GGAAAAUGAAGGUUCAGAATT against Pkib", "z-score": "inactive: -0.185"}
{"sequence": "GGAUCUCACCCAACAGGCUTT against Samd7", "z-score": "inactive: 0.416"}
{"sequence": "CCAUGGUUACCGUGUACUATT against Olfr1513", "z-score": "inactive: -0.312"}
{"sequence": "GGCUAAAUCAAAGUUAUGATT against Speer4f1", "z-score": "inactive: -1.37"}
{"sequence": "GGAGCCUUCACGGGUAUCATT against Slc6a9", "z-score": "inactive: -0.878"}
{"sequence": "GGAUAAAACAGGACUUCUUTT against Dcaf11", "z-score": "inactive: 0.778"}
{"sequence": "GCUUUGGUCGCUCUCGUGATT against Tctex1d1", "z-score": "inactive: 0.229"}
{"sequence": "GGCACAACUCCCUUGUGAUTT against Tlr8", "z-score": "inactive: -0.574"}
{"sequence": "GGAAGAAAGACUAGACUCGTT against Zfp444", "z-score": "inactive: 0.338"}
{"sequence": "GCCAAAUGGGAAAUGGAAGTT against Utp6", "z-score": "inactive: 0.34"}
{"sequence": "GCGACUCACUGGGAACCUUTT against Col9a3", "z-score": "inactive: 0.207"}
{"sequence": "CCCAAACCAAUUUGUGCCUTT against Add2", "z-score": "inactive: -1.53"}
{"sequence": "GGAUAAUGUGGUCAUAGUATT against Ap3m1", "z-score": "inactive: 0.655"}
{"sequence": "GGAUAGCUCAUGAUGCUGUTT against Usp13", "z-score": "inactive: -0.885"}
{"sequence": "GGAGGAUCCUGCUAUUCCATT against 4930583K01Rik", "z-score": "active: -2.24"}
{"sequence": "CCCUCCAAAAGAAGACUAUTT against Sh3pxd2a", "z-score": "inactive: 0.753"}
{"sequence": "CGCUAUUUACCAGAGUGGGTT against Elp2", "z-score": "inactive: -0.0107"}
{"sequence": "GGAAGGUGAUAUCUUAUGUTT against Elmo3", "z-score": "inactive: -0.249"}
{"sequence": "CCUCGUGGUGAAAAUCAACTT against Lpin3", "z-score": "inactive: 0.435"}
{"sequence": "GGACUUUCUGAUAAAGAACTT against Mmaa", "z-score": "inactive: -0.135"}
{"sequence": "GCAAGAGACCAUGAGAAAUTT against Ccdc18", "z-score": "inactive: -0.149"}
{"sequence": "GGAUGUGAACAUCGAGGACTT against Il1f10", "z-score": "inactive: 1.2"}
{"sequence": "GCAAGCUAUUCCACCAUUGTT against Spns3", "z-score": "inactive: -0.975"}
{"sequence": "CCCACUACUGUAAGACAUGTT against Trim46", "z-score": "inactive: 0.614"}
{"sequence": "GGCCGUCAGCUUUACACAGTT against Gramd1c", "z-score": "inactive: -0.296"}
{"sequence": "GGUGCUCAUGGAGAAGUUATT against Far2", "z-score": "inactive: 0.749"}
{"sequence": "GGAAGAUGUGACCAAUUCUTT against Prokr1", "z-score": "inactive: 0.635"}
{"sequence": "CCAAGCAAGUGGUUAACUUTT against Psat1", "z-score": "inactive: 0.847"}
{"sequence": "GCCCAUUAUGAAACUGAAGTT against Nfatc3", "z-score": "inactive: 1.45"}
{"sequence": "CGCGCUGGUACAAUCUCCUTT against Wwc1", "z-score": "inactive: 0.828"}
{"sequence": "GGGCAGUGUACUGUUUAACTT against Rhpn1", "z-score": "inactive: 0.709"}
{"sequence": "CCAGUACAAAGCCACAAUATT against Rab7", "z-score": "active: 5.54"}
{"sequence": "GGCUUUGGAUUUGUCAAGUTT against Dazap1", "z-score": "inactive: -0.804"}
{"sequence": "GGAUGUGAAAUUCAAGCUUTT against Dhx34", "z-score": "inactive: -0.457"}
{"sequence": "GGAUGAAGAAACAAGAAAGTT against Tmc1", "z-score": "active: -2.46"}
{"sequence": "CCUCUUAUACCUUUAACUCTT against Clpb", "z-score": "inactive: -0.747"}
{"sequence": "GUUUUAGUGUGGCUGCAUUTT against Gsta2", "z-score": "inactive: 0.135"}
{"sequence": "GGCAAUGUUACCAUUCACUTT against Il6ra", "z-score": "inactive: -1.06"}
{"sequence": "GCCUAGAGACAUUUCUACCTT against Bcl2l10", "z-score": "inactive: 1.31"}
{"sequence": "GCGACUACUUAGACACUUUTT against Snx30", "z-score": "inactive: 0.724"}
{"sequence": "CGUGGGCUCUGUUGACAUUTT against Olfr492", "z-score": "inactive: 0.869"}
{"sequence": "GGAGAUUUUCAAGAGACUCTT against 0610010F05Rik", "z-score": "inactive: 1.94"}
{"sequence": "CCGGUUACAAACUCAACUGTT against Syne3", "z-score": "inactive: -0.285"}
{"sequence": "CGCACAUUCUUCAUAACACTT against Kdm8", "z-score": "inactive: -1.57"}
{"sequence": "CCCUAUAGACCAGUGCAAUTT against Cnih1", "z-score": "inactive: 0.478"}
{"sequence": "GGGCUAGCUAGCAAAAGCATT against Prr13", "z-score": "inactive: -1.83"}
{"sequence": "AAUGCUAAUUACCAUGACATT against Adgrl3", "z-score": "inactive: 0.264"}
{"sequence": "GGUGGUGGAUGAUGAAGACTT against Myo7a", "z-score": "inactive: -0.0254"}
{"sequence": "GGAUAAGCCUUAAGGAAAATT against Stard5", "z-score": "inactive: 1.19"}
{"sequence": "CGAGACUCUAUCUUUGUCCTT against St3gal3", "z-score": "inactive: -0.785"}
{"sequence": "GGUCUGGGACUGAAGCACUTT against Sec14l3", "z-score": "inactive: -0.341"}
{"sequence": "GGAGAGACUUGAGAUUGUCTT against Ptx3", "z-score": "inactive: 0.245"}
{"sequence": "GCCAUAUUCAAAUAACUGATT against Tor3a", "z-score": "inactive: -0.709"}
{"sequence": "GGAAGAAAAACAGCAGAUCTT against Dync1i1", "z-score": "inactive: -1.04"}
{"sequence": "GGACCUCUUCCUGAUGGAUTT against Yap1", "z-score": "inactive: 1.87"}
{"sequence": "GGUCUUCCAAGAAAAAGGCTT against a", "z-score": "inactive: 1.07"}
{"sequence": "GCUCUUUACCCAUCACUAATT against 8030451A03Rik", "z-score": "inactive: -1.39"}
{"sequence": "GGGACAGUCUUCAGUGACATT against Czib", "z-score": "inactive: 1.1"}
{"sequence": "GGCUUACACAAAAAUCUGUTT against Camk2d", "z-score": "inactive: -0.36"}
{"sequence": "GGGCCAGCAAGGAAAGAAUTT against Pitx2", "z-score": "inactive: -1.37"}
{"sequence": "GGUGGUAUCUGUAUUCUAUTT against Olfr1106", "z-score": "active: 2.6"}
